According to publication PMC7819943, “Rice protein-binding microarrays: a tool to detect cis-acting elements near promoter regions in rice”:
The list shows a part of the results.

molecular target: T1, OsSMF1 (Oryza sativa, UniProt Q6ZLB0 1-436); assay: protein-binding microarray (RPBM); PBS, 2% BSA, 51.3 ng/ul salmon testes DNA, 50 uM zinc acetate, 200 nM TF, 25 C, 1 h; high values mean tight binding; settings: protein: recombinant; tags: N-terminal polyhistidine and DsRed monomer fusion (pET32a); chain copies: 2; label: CyDye5-dUTP incorporated in the synthesized complementary strand; 3' TTTTT single-stranded linker to array surface; dsDNA, one strand shown
T1 sequence: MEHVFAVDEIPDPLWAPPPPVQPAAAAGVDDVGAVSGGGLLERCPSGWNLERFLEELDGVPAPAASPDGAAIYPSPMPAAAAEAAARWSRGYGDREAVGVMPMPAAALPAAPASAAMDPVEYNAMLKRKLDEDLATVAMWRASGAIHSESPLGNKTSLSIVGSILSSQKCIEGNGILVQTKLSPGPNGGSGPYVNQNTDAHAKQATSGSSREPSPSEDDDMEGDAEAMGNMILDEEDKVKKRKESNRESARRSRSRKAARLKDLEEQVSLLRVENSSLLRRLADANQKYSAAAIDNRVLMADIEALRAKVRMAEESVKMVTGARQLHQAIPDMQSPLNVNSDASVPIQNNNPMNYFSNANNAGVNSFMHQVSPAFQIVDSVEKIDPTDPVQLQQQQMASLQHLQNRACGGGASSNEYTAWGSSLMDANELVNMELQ
How it was run: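 The binding signal is fluorescence intensity per array feature (arbitrary units). Readings came from an Axon 4000B scanner after a washed, 2% BSA-blocked, double-stranded custom Agilent array had been incubated for 1 h at 25 °C with 200 nM protein and 50 µM zinc acetate. The protein was a Ni–NTA-purified transcription factor fused N-terminally to polyhistidine and DsRed, expressed in E. coli BL21-CodonPlus.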

Sequence | binding signal
GATAGTCTCTACCCCATCTAATCTAGCCTATCGCTCTTGTCGGAGTCACCTAGTGCAG | 3340 fluorescence intensity (a.u.)
GAGACCCACCGTCTGCCGTGGCGCCGTGGCGGGGACGACGCGGAGTCACCTAGTGCAG | 4110 fluorescence intensity (a.u.)
CTCGCAGTCGTCGCAGCTGGCTCAGCTCAACCTCTCCAGCCGGAGTCACCTAGTGCAG | 3220 fluorescence intensity (a.u.)
AAAGTGACTGTAGATGATGTATTAATTTTGAAAGGTAGCACGGAGTCACCTAGTGCAG | 4440 fluorescence intensity (a.u.)
ATTCCCTCGTCGCCAGCGGTTTCGCGTTGCCGCGTTCGTCCGGAGTCACCTAGTGCAG | 3840 fluorescence intensity (a.u.)
AGATGGCGGCGGCGGCGCAGATCCGGCCTCCACGCGCGCACGGAGTCACCTAGTGCAG | 3940 fluorescence intensity (a.u.)
TTTTCTTTTATTTTCCACCGGTACTGTTCATTGCGCACCACGGAGTCACCTAGTGCAG | 3270 fluorescence intensity (a.u.)
TTTTCTCATCCTAAATTCCTAATAACTAGAAAAGATGACCCGGAGTCACCTAGTGCAG | 26000 fluorescence intensity (a.u.)
GTGAGTTGGGAACTCTAAGTTCCGAATACACCTGGCTAACCGGAGTCACCTAGTGCAG | 32800 fluorescence intensity (a.u.)
TCACCGTTAACACCACTGTTGGCTGGCCGCACCTACCTCTCGGAGTCACCTAGTGCAG | 3350 fluorescence intensity (a.u.)
TGGCGGCTATCCCCGGAGTCACTGCCACGTGGGGCCCAGCCGGAGTCACCTAGTGCAG | 33200 fluorescence intensity (a.u.)
CGACGGTCGCCACCGTCGCCGTTGCCGTCGTGTCTCAGGCCGGAGTCACCTAGTGCAG | 3340 fluorescence intensity (a.u.)
AAATTGTCATTGTTTGCTGGCTGATTTTATCATCATTTTCCGGAGTCACCTAGTGCAG | 3360 fluorescence intensity (a.u.)
GAGGCGATCGCCGGGGTACGCGTGCTGAATTACCTCAACCCGGAGTCACCTAGTGCAG | 3440 fluorescence intensity (a.u.)
CAAAACAATCAACGCGTCAACATGGTGATGCTCTGTTTGACGGAGTCACCTAGTGCAG | 4080 fluorescence intensity (a.u.)
CTCCCCTCTCTTGCTGTCTCTGCTTGCTGCTGCTGCTGCTCGGAGTCACCTAGTGCAG | 22700 fluorescence intensity (a.u.)
TATACTATCTGTAAATCCTTAGTACACAGCAGGCAGCAGGCGGAGTCACCTAGTGCAG | 3280 fluorescence intensity (a.u.)
CGGAGAAGGCGCTGACCACACGCGGCGCCAACTCCTCCACCGGAGTCACCTAGTGCAG | 3360 fluorescence intensity (a.u.)
CGTACACCATAGGGACATATATCTCTCTGACGTGTGGGTCCGGAGTCACCTAGTGCAG | 8470 fluorescence intensity (a.u.)
TTTCAAGTAGATCGGCTCCTACTCATCGATGAACTCCCACCGGAGTCACCTAGTGCAG | 3960 fluorescence intensity (a.u.)
AGGCTACGAAACTTTCGTAGAAGCCTACATAACGAAAAGGCGGAGTCACCTAGTGCAG | 3670 fluorescence intensity (a.u.)
CACCTACCCGCGTCCACGCGGCCCACCTGGCGGCGCGAGGCGGAGTCACCTAGTGCAG | 3180 fluorescence intensity (a.u.)
GTGCTTCGGCGGCAGCGCCAGCGTCACGAACTGCTCCTCCCGGAGTCACCTAGTGCAG | 3810 fluorescence intensity (a.u.)
GCCGTTTCTCCGCGTTCGATTTCGTTGGTTGATGCGTGGGCGGAGTCACCTAGTGCAG | 3770 fluorescence intensity (a.u.)
GGTCATCTGGTGCATACACGTAACACGTCAGGACAACCACCGGAGTCACCTAGTGCAG | 8620 fluorescence intensity (a.u.)
CGATCCTATGCGTCGTTGGCAGTTTGGCACTAAATCGACCCGGAGTCACCTAGTGCAG | 4230 fluorescence intensity (a.u.)
CGCGACGCCCAGCTCCTGTGATGTCATGTCATGGTCGTCTCGGAGTCACCTAGTGCAG | 9530 fluorescence intensity (a.u.)

Some of the entries so far, with each value named:
AGATGGCGGCGGCGGCGCAGATCCGGCCTCCACGCGCGCACGGAGTCACCTAGTGCAG
  binding signal = 3940 fluorescence intensity (a.u.)
TTTTCTCATCCTAAATTCCTAATAACTAGAAAAGATGACCCGGAGTCACCTAGTGCAG
  binding signal = 26000 fluorescence intensity (a.u.)
GTGAGTTGGGAACTCTAAGTTCCGAATACACCTGGCTAACCGGAGTCACCTAGTGCAG
  binding signal = 32800 fluorescence intensity (a.u.)
AAATTGTCATTGTTTGCTGGCTGATTTTATCATCATTTTCCGGAGTCACCTAGTGCAG
  binding signal = 3360 fluorescence intensity (a.u.)

Additional entries follow:

Sequence | binding signal
TAACTAATAAAATGTGACAGGTCATGGCAATCTTAGATAGCGGAGTCACCTAGTGCAG | 5710 fluorescence intensity (a.u.)
ATGTTGTCATGACATGTTACGGTAATATTAGTTGGTGTCCCGGAGTCACCTAGTGCAG | 4360 fluorescence intensity (a.u.)
CCCTCTAACTTTACTTAAAGAGGAGACTCATCCCAACCAACGGAGTCACCTAGTGCAG | 5150 fluorescence intensity (a.u.)
CATCGCATCTGCTCCACGTGTGCGCTATCGCGGCTGCGGCCGGAGTCACCTAGTGCAG | 13400 fluorescence intensity (a.u.)
GCGCGCCTGCGCGCCTCTCTCCCGCAGTCCCGCCCGCCCGCGGAGTCACCTAGTGCAG | 3470 fluorescence intensity (a.u.)
ACATGCCGCTAGGAAATATCCCATCCGGTGCCTGTCTAGACGGAGTCACCTAGTGCAG | 3150 fluorescence intensity (a.u.)
GTCTGGTGACATCCTACGATAGCCCACGTGTACCAAAACCCGGAGTCACCTAGTGCAG | 10000 fluorescence intensity (a.u.)
TTTATCCCCACATAAAACAAGTAGCTTAACGTGTGTGTATCGGAGTCACCTAGTGCAG | 3360 fluorescence intensity (a.u.)
ATCCCCGGTCATCTCGCCTCGTCTCGTCCCGTCCCTGCGCCGGAGTCACCTAGTGCAG | 3460 fluorescence intensity (a.u.)
CGACTTCGCGCTCATGTCCATCGGCGCCGTCGTGTCGCCGCGGAGTCACCTAGTGCAG | 4000 fluorescence intensity (a.u.)
AAAAGTTACACGTCTAATGTTGGATTCTTCCAGAGCACTGCGGAGTCACCTAGTGCAG | 3930 fluorescence intensity (a.u.)
TGCTCTTCCACATCAATGGACCACAAAATTCATTTGTGGACGGAGTCACCTAGTGCAG | 3220 fluorescence intensity (a.u.)
CTTTCCAGTTCCTTGTTTCTATCACACTCACTAGGACCAACGGAGTCACCTAGTGCAG | 32000 fluorescence intensity (a.u.)
GTCAGCGTGAGACCGATATGGCCAGCTAAGTCAGCGTGAGCGGAGTCACCTAGTGCAG | 4000 fluorescence intensity (a.u.)
GGGAAGGGCGCCGCGGCGGTGGCCGCGGAGGTGGAGCCGTCGGAGTCACCTAGTGCAG | 4000 fluorescence intensity (a.u.)
AAGTCTGCAGTTGCACTGGGAGTTGACAAAGAAGATGACGCGGAGTCACCTAGTGCAG | 3550 fluorescence intensity (a.u.)
TCCTTCAAGAATCCTATACTTCTTAAATCAGGAACATAATCGGAGTCACCTAGTGCAG | 8910 fluorescence intensity (a.u.)
TTTGTACTCCCTCCGTTTCACAATGTGAGTCATTCTAACACGGAGTCACCTAGTGCAG | 5260 fluorescence intensity (a.u.)
GGGCAGTTTCGTTGATGTGGCGCCTACGTGGCGATGTTGACGGAGTCACCTAGTGCAG | 31300 fluorescence intensity (a.u.)
CCTCCTCACGCCTCACACCGCTCAGTGACCTCGCAAACCACGGAGTCACCTAGTGCAG | 13900 fluorescence intensity (a.u.)
CTTCAAGGCTTTGTGGTGACACTGATATCTCTCTAGTCTCCGGAGTCACCTAGTGCAG | 5100 fluorescence intensity (a.u.)
GGTGGGGTGAGCGTGTGTGCGGCGCTAGGGTTCGCGAGGGCGGAGTCACCTAGTGCAG | 3540 fluorescence intensity (a.u.)
ATCGTCGCGGGGCCGCCGACGGCGCGCGGTGTGGCCGACGCGGAGTCACCTAGTGCAG | 6480 fluorescence intensity (a.u.)
AAATTTAACTTTTACATCGCGTCCCACCGTCGCCGCGCTCCGGAGTCACCTAGTGCAG | 3430 fluorescence intensity (a.u.)
TAGTATCAGCTGCTGACAGATAGCTCGAGAGTGTACCTTACGGAGTCACCTAGTGCAG | 3890 fluorescence intensity (a.u.)
AGGTTGAGGTTCTCCCTCCACGTCCTCTTGGGTGGCTTCTCGGAGTCACCTAGTGCAG | 4270 fluorescence intensity (a.u.)
CATCATCACTGCTCGAGTCGAGAGTCGAGTGTCGAGACATCGGAGTCACCTAGTGCAG | 9360 fluorescence intensity (a.u.)
